The target of the assay is Streptococcus pyogenesのStreptolysin O(SLO) (Streptococcus pyogenes) (UniProt P0C0I3). In words: western blot, 10 ng SLO, HS1 at 1 μg/mL, anti-mouse IgG-HRP.

The chains behind the UniProt entries cited, without tags or fusion partners. Residues count along the entry.
UniProt P0C0I3, residues 34-571: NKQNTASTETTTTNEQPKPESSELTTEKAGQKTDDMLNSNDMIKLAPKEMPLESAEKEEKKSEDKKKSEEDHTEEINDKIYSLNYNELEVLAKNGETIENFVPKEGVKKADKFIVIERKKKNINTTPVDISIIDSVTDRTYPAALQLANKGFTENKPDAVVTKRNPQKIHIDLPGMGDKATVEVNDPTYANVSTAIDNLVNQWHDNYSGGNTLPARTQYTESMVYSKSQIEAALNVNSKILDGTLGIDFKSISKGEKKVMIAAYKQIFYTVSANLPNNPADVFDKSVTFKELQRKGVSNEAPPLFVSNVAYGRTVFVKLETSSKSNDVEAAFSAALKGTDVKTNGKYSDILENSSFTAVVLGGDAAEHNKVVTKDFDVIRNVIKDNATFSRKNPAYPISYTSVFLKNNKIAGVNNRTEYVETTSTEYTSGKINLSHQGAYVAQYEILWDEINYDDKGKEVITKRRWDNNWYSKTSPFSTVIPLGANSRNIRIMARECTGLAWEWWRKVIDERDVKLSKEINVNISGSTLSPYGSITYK

No constants are given. Whether binding was seen depends on the method and setting. Some binding calls cover weakened binding; strength is not graded here.

B1: 抗体HS1 (antibody, V domains shown)
VH: EVQLQESGPSLVKPSQTLSLTCSVTGDSITSGYWNWIRKFPGNKFEYMGYISYGDSTYYNPSLKSRISITRDTSKNQYYLQLNSVTTEDTATYYCARLGNDYNWYFDVWGAGTTVTVSS
VL: DIQMNQSPSSLSASLGDTITITCHASQNINVWLSWYQQKPGNIPKLLIFKASNLYTGVPSRFSGSGSGTGFTLTISSLQPEDIATYYCQQGQTYPLTFGGGTKL
As to B1, the binding entry is listed as “binds”.

The record behind these values is patent JP2020117470A.
